Data taken from US20180273617A1 (AstraZeneca / MedImmune, published 2018).
These are yes or no findings as the source states them, for the method shown. Some results given as binding are weak or reduced against the parent protein; the word gives no strength.

Key:
human ASCT2 (SLC1A5) = molecular target: T1, human ASCT2 (SLC1A5) (human, UniProt Q15758 1-541); assay: flow cytometry on WiDr cells with ASCT2 shRNA or non-target shRNA
T1 sequence (looked up): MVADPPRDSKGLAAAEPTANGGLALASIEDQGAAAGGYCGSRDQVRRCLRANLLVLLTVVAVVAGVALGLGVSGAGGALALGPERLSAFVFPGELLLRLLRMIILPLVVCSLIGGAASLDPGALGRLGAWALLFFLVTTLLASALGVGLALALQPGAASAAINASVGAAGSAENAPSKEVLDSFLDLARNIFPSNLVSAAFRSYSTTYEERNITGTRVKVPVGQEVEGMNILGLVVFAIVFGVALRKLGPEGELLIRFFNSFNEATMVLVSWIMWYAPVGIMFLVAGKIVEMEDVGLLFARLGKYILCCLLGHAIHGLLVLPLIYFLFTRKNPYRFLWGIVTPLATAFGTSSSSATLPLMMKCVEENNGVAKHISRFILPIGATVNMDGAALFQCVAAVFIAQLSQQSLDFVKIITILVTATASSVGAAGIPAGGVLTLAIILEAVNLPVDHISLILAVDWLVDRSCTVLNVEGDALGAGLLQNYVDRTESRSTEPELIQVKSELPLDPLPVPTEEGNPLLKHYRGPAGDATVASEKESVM

[1] = molecular target: T2, cynomolgus monkey ASCT2 (cynomolgus monkey (Macaca fascicularis)) (UniProt G7PXZ3); assay: flow cytometry on CHO cells expressing CyASCT2
T2 sequence: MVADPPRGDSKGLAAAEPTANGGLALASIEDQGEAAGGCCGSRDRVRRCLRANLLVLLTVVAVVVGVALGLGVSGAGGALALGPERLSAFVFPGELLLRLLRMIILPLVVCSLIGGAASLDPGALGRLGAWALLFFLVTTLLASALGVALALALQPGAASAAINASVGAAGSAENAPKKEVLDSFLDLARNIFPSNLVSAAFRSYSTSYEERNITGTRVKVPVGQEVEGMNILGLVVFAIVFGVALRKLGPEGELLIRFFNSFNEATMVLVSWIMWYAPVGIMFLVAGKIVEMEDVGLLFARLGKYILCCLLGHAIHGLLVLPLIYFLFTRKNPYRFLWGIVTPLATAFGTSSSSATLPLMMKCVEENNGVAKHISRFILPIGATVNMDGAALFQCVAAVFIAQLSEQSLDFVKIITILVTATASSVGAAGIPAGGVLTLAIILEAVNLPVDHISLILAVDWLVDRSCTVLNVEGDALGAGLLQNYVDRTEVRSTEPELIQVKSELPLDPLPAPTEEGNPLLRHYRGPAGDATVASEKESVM

B1: anti-ASCT2 antibody 1e8 (original) (antibody, V domains shown)
VH: QVQLQQWGAGLLKPSETLSLTCAVYGGSFSGYYWSWIPQPPGKGVEWIGEINHSGSTNYNPSLKSRVTISSDTSKNQFSLKLTSVTAADTAVYYCARGQGKNWNYDYFDYWGQGTLVTVSS
VL: DIQMTQSPSTLSASVGDRVTLTCRASQSIRSWLAWYQQKPGKAPKLLIYKASSLKSGVPSRFSGSGSGTDFTLTISSLQPDDFATYYCQQYYSFSRTFGQGTKVEIK
- binding (human ASCT2 (SLC1A5)): binds

B2: germlined 17c10 antibody (antibody, V domains shown)
VH: QVQLQQWGAGLLKPSETLSLTCAVYGGSFSGYYWSWIRQPPGKGLEWIGEIHHSGGANYNPSLKSRVTISVDTSKNQFSLKLSSVTAADTAVYYCARGQGKNWHYDYFDYWGQGTLVTVSS
VL: DIQMTQSPSTLSASVGDRVTITCRASQSIRSWLAWYQQKPGKAPKLLIYKASILKIGVPSRFSGSGSGTEFTLTISSLQPDDFATYYCQQYYSYSRTFGQGTKVEIK
- binding [1]: binds

B3: anti-ASCT2 antibody 17c10 (original, non-germlined; parental 17c10) (antibody, V domains shown)
VH: QVQLQQWGAGLLKPSETLSLTCAVYGGSFSGYYWSWIRQPPGKGLEWIGEIHHSGGANYNPSLKSRVTISVDTSKNQFSLKLTSVTAADTAVYYCARGQGKNWHYDYFDYWGQGTLVTVSS
VL: DIQMTQSPSTLSTSVGDRVTLTCRASQSIRSWLAWYQQNPGKAPKLLIYKASILKIGVPSRFSGSGSGTDFTLTITSLQPDDFATYYCQQYYSYSRTFGQGTKVEIK
- binding [1]: binds
